Reference: paper PMC12000397
These are yes or no findings as the source states them, for the method shown. Some binding calls cover weakened binding; strength is not graded here. Each block holds one substance with its values, some of them ahead of it.

The chains behind the UniProt entries cited, without tags or fusion partners. Where a name states a change or a piece, a line headed by the entry shows the natural chain unless it says otherwise. A line that says so, or that is headed by a name, gives the form on record, which may keep a tag or linker. Residues count along the entry.
UniProt P20029, residues 27-655: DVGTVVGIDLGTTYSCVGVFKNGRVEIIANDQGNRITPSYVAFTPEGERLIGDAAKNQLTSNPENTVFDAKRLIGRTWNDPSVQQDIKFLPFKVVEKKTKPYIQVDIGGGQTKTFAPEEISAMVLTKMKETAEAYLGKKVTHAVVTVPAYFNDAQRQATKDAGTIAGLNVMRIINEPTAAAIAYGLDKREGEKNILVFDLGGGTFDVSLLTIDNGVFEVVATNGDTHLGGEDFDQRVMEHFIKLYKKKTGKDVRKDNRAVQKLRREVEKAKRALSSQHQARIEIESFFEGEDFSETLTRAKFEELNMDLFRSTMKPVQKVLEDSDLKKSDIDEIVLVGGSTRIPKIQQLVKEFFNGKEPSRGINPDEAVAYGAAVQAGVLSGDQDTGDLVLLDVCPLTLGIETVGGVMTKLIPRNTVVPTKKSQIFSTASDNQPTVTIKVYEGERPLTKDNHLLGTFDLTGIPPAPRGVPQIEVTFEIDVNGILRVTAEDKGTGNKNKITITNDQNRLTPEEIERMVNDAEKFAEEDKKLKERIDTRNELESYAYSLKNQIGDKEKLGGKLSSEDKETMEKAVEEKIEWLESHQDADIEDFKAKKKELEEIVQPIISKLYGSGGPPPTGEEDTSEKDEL
proIGF2 (P01344, residues 25-180): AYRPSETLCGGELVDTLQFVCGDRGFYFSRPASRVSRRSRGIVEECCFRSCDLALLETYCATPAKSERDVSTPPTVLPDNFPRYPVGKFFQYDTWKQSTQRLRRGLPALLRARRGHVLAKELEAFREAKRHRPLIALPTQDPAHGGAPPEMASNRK
proIGF2_(92-120) fragment (Ext. Site 1), FITC-labeled (P01344, form named): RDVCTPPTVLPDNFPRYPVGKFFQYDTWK
Grp94_(K467A) (P08113, form named): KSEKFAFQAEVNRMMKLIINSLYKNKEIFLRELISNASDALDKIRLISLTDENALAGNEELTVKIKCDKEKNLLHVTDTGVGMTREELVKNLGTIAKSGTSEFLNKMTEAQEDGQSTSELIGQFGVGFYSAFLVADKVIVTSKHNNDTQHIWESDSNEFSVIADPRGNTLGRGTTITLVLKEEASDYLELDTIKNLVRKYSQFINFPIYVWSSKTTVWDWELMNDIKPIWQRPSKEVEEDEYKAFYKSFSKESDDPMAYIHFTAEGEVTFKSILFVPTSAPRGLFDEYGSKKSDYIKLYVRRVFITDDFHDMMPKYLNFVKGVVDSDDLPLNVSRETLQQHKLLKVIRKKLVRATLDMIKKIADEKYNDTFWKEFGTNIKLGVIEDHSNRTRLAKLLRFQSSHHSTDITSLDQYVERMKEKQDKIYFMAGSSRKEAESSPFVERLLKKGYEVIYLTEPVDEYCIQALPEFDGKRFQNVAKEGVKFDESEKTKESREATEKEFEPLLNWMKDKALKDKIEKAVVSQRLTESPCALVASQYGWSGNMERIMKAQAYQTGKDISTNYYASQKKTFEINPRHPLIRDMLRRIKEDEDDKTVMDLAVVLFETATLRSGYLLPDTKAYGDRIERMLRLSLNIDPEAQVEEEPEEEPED

Assays:
[1] = molecular target: Mouse BiP (residues 27-655) (mouse) (UniProt P20029); experiment: fluorescence polarisation; FITC-labeled client preincubated with BiP, Grp94 then added; BiP and Grp94 varied together (Fig. 6A, B; apparent) or 5 μM BiP and 5 μM Grp94 monomer (ΔP, Fig. 6C), with and without inhibitors; ADP conditions; 60 mM HEPES pH 7.0, 50 mM KCl, 5 mM MgCl2, 1 mM DTT, 0.75 mg/mL BSA, 1 mM ADP, 30 °C; both purified
[2] = molecular target: proIGF2_(92-120) fragment (Ext. Site 1), FITC-labeled (UniProt P01344); experiment: fluorescence polarisation; FITC-labeled client constructs, BiP titrated; ATP conditions (Supplementary Fig. 12D); both purified
proIGF2 = proIGF2 (UniProt P01344); experiment: dynamic light scattering; mean hydrodynamic radius at a concentration of 1 μM; both purified

binding [1]: no binding (tested: 5 μM Grp94 monomer)
Substance: Grp94_(K467A) (from UniProt P08113 72-765)

binding [2]: binds
Substance: Mouse BiP (residues 27-655) (from UniProt P20029 27-655)

binding (proIGF2): binds
Substance: proIGF2 (from UniProt P01344 25-180)
